From paper PMC11547375, “Peptide Dimerization as a Strategy for the Development of Antileishmanial Compounds” (Molecules, 2024)
Positions of bridges follow the written chain, without caps; N, C: chain ends. Residues, ends and D or L forms follow the SMILES beside them. Chains are numbered I, II in the order given.

System: L. mexicana amastigotes
Format: cell-based, Leishmania mexicana
Method: Macrophages were sourced from the peritoneal cavity of Swiss mice using the methodology outlined by de Almeida et al.. Anti-promastigote and anti-amastigote assays of L. mexicana and L. amazonensis and their cytotoxic activity were conducted as previously described. […] Cytotoxicity for the host cells and the protozoan species was compared and expressed as the selectivity index (SI), calculated as the ratio of the CC50 for macrophages to the IC50 for the protozoan species.

CC[C@H](C)[C@H](NC(=O)CNC(=O)[C@H](CO)NC(=O)[C@H](CC(C)C)NC(=O)[C@@H](N)Cc1ccccc1)C(=O)N[C@H](C(=O)NCC(=O)N[C@@H](CCSC)C(=O)N[C@@H](CC(C)C)C(=O)NCC(=O)N[C@@H](CCCCN)C(=O)N[C@@H](CC(C)C)C(=O)N[C@@H](Cc1ccccc1)C(=O)NCCCC[C@H](NC(=O)[C@H](Cc1ccccc1)NC(=O)[C@H](CC(C)C)NC(=O)[C@H](CCCCN)NC(=O)CNC(=O)[C@H](CC(C)C)NC(=O)[C@H](CCSC)NC(=O)CNC(=O)[C@@H](NC(=O)[C@@H](NC(=O)CNC(=O)[C@H](CO)NC(=O)[C@H](CC(C)C)NC(=O)[C@@H](N)Cc1ccccc1)[C@@H](C)CC)C(C)C)C(N)=O)C(C)C [(TSHa)2K] (I: H-FLSGIVGMLGKLFK-NH2 / II: H-FLSGIVGMLGKLF; amide I:14-II:C; N-terminus assumed)
SI Amastigote 24 h of Treatment (CC50 macrophages / IC50 L. mexicana amastigote, 24 h): > 1724 | SI Amastigote 48 h of Treatment (CC50 macrophages / IC50 L. mexicana amastigote, 48 h): >2127 | SI times higher than control drug Amp B (L. mexicana amastigote, vs Amp B (SI = 38)): approximately 45 times | times more selective than the monomer (L. mexicana, vs TSHa): ~9 times
